# Data reported in the supplement of paper PMC8090911.
# Structures can show the parent of a compound that is named as a salt. This is one part of the list. Many values rest on one well or one pass, so single values are uncertain.
# Test system: p95-ErbB2-MCF7
# Assay: perinuclear lysosome accumulation (PNLA, size of LAMP2 puncta), robust Z-score vs plate median; higher = more perinuclear lysosome accumulation (reversal of invasive lysosome distribution)
# Details: 5 µM; 24 h
row,Structure (SMILES),perinuclear lysosome accumulation
1,CCCNC(=O)NS(=O)(=O)c1ccc(Cl)cc1 [Chlorpropamide],0.0196
2,CCN(CC)C(C)CN1c2ccccc2Sc2ccccc21 (stereo not drawn) [Ethopropazine hydrochloride],-1.42
3,Cn1c(=O)c2c(ncn2CC2OCCO2)n(C)c1=O [Doxofylline],1.25
4,CN1CCN(CC(=O)N2c3ccccc3C(=O)Nc3cccnc32)CC1 [Pirenzepine dihydrochloride],-0.465
5,COC(=O)Nc1nc2cc(Sc3ccccc3)ccc2[nH]1 [Fenbendazole],3.37
6,CN(CCCCCCCCCCN(C)C(=O)Oc1cccc([N+](C)(C)C)c1)C(=O)Oc1cccc([N+](C)(C)C)c1 [Demecarium bromide],0.00915
7,CC(=O)N(CC(O)CO)c1c(I)c(C(=O)NCC(O)CO)c(I)c(C(=O)NCC(O)CO)c1I (stereo not drawn) [Iohexol],-1.9
8,c1ccc(-c2ccc(C(c3ccccc3)n3ccnc3)cc2)cc1 (stereo not drawn) [Bifonazole],-0.0292
9,Oc1c(Cl)cc(Cl)c2cccnc12 [Chloroxine],-2.18
10,CN(C)CCC(c1ccc(Br)cc1)c1ccccn1 (stereo not drawn) [Brompheniramine maleate],-0.189
11,CC(=O)OC[C@H]1O[C@@H]([S-])[C@H](OC(C)=O)[C@@H](OC(C)=O)[C@@H]1OC(C)=O.CCP(CC)CC.[Au+] [Auranofin],6.05
12,CCC1(c2ccccc2)C(=O)NCNC1=O [Primidone],0.0431
13,Nc1ncnc2c1ncn2[C@@H]1O[C@H](CO)[C@@H](O)[C@@H]1O [Vidarabine],-1.97
14,C[C@@](Cc1ccc(O)c(O)c1)(NN)C(=O)O [Carbidopa],1.51
15,CCOc1nc2cccc(C(=O)O)c2n1Cc1ccc(-c2ccccc2-c2nnn[nH]2)cc1 [Candesartan],0.59
16,CC(=O)Nc1nnc(S(N)(=O)=O)s1 [Acetazolamide],0.644
17,Cc1cc2cc3c(C)cc(=O)oc3c(C)c2o1 [Trioxsalen],-0.207
18,Clc1ccc2nsnc2c1NC1=NCCN1 [Tizanidine HCl],-0.0785
19,CCCCOc1cc(C(=O)OCCN(CC)CC)ccc1N [Benoxinate hydrochloride],1.85
20,C[C@]12CC[C@@H]3c4ccc(O)cc4C[C@@H](CCCCCCCCC[S+]([O-])CCCC(F)(F)C(F)(F)F)[C@H]3[C@@H]1CC[C@@H]2O (stereo partly drawn) [Fulvestrant],-0.55
21,CO/N=C(\C(=O)N[C@@H]1C(=O)N2C(C(=O)O)=C(COC(C)=O)CS[C@H]12)c1csc(N)n1 [Cefotaxime sodium salt],0.0858
22,Nc1ccc(S(=O)(=O)Nc2nccs2)cc1 [Sulfathiazole],-0.956
23,CC(CNC1CCCCC1)OC(=O)c1ccccc1 (stereo not drawn) [Hexylcaine hydrochloride],-2.11
24,Cc1ccc(-c2cc(C(F)(F)F)nn2-c2ccc(S(N)(=O)=O)cc2)cc1 [Celecoxib],0.673

# Exported tab-delimited: 3 of the compounds above
row	Structure (SMILES)	perinuclear lysosome accumulation
21	CO/N=C(\C(=O)N[C@@H]1C(=O)N2C(C(=O)O)=C(COC(C)=O)CS[C@H]12)c1csc(N)n1 [Cefotaxime sodium salt]	0.0858
22	Nc1ccc(S(=O)(=O)Nc2nccs2)cc1 [Sulfathiazole]	-0.956
23	CC(CNC1CCCCC1)OC(=O)c1ccccc1 (stereo not drawn) [Hexylcaine hydrochloride]	-2.11

# (continued)

row,Structure (SMILES),perinuclear lysosome accumulation
1,C[C@@H]1CCC[C@H](C)N1NC(=O)c1ccc(Cl)c(S(N)(=O)=O)c1 [Clopamide],0.197
2,CC[C@H]1OC(=O)[C@H](C)[C@@H](O[C@H]2C[C@@](C)(OC)[C@@H](O)[C@H](C)O2)[C@H](C)[C@@H](O[C@@H]2O[C@H](C)C[C@H](N(C)C)[C@H]2O)[C@](C)(O)C[C@@H](C)CN(C)[C@H](C)[C@@H](O)[C@]1(C)O [Azithromycin],0.765
3,CN[C@H]1CC[C@@H](c2ccc(Cl)c(Cl)c2)c2ccccc21 [Sertraline],6.79
4,CCN(CC)CCNC(=O)c1ccc(N)cc1 [Procainamide hydrochloride],-0.0544
5,CC(=O)Nc1c(I)c(C(=O)N[C@H]2C(O)O[C@H](CO)[C@@H](O)[C@@H]2O)c(I)c(N(C)C(C)=O)c1I (stereo partly drawn) [Metrizamide],0.488
6,CCOC1O[C@H]([C@@H](COCc2ccccc2)OCc2ccccc2)[C@H](OCc2ccccc2)[C@H]1O (stereo partly drawn) [Tribenoside],0.0937
7,CNCC(O)c1ccc(O)c(O)c1 (stereo not drawn) [Racepinephrine HCl],0.2
8,N[C@H]1CONC1=O [(S)-(-)-Cycloserine],-0.344
9,CCN(CC)C(=O)Nc1ccc(OCC(O)CNC(C)(C)C)c(C(C)=O)c1 (stereo not drawn) [Celiprolol HCl],1.45
10,COc1cc2nc(N3CCN(C(=O)C4COc5ccccc5O4)CC3)nc(N)c2cc1OC (stereo not drawn) [Doxazosin mesylate],1.74
11,CCN(CCCCOC(=O)c1ccc(OC)c(OC)c1)C(C)Cc1ccc(OC)cc1 (stereo not drawn) [Mebeverine hydrochloride],-0.149
12,Cc1cc(C(C)(C)C)cc(C)c1CC1=NCCN1 [Xylometazoline hydrochloride],-1.42
13,CCN(CC)CCOCCOC(=O)C1(c2ccccc2)CCCC1 [Carbetapentane citrate],-0.511
14,Cc1c(N)c(=O)n(-c2ccccc2)n1C [Ampyrone],-3.07
15,C=CCOc1ccccc1OCC(O)CNC(C)C (stereo not drawn) [Oxprenolol hydrochloride],1.16
16,NC[C@H]1O[C@H](O[C@H]2[C@H](O)[C@@H](O[C@H]3O[C@H](CO)[C@@H](O)[C@H](N)[C@H]3O)[C@H](N)C[C@@H]2N)[C@H](N)C[C@@H]1O [Tobramycin],0.422
17,CCOC(=O)/C=C(C)/C=C/C=C(C)/C=C/c1c(C)cc(OC)c(C)c1C [Etretinate],1.19
18,CN1CCN2c3ncccc3Cc3ccccc3C2C1 (stereo not drawn) [Mirtazapine],-0.223
19,Cc1cc(C)nc(NS(=O)(=O)c2ccc(N)cc2)n1 [Sulfamethazine sodium salt],-1.25
20,COc1cc(NS(=O)(=O)c2ccc(N)cc2)ncn1 [Sulfamonomethoxine],0.0411
21,CC1(C)O[C@@H]2C[C@H]3[C@@H]4C[C@H](F)C5=CC(=O)C=C[C@]5(C)[C@@]4(F)[C@@H](O)C[C@]3(C)[C@]2(C(=O)CO)O1 [Fluocinolone acetonide],0.0292
22,COC(=O)N/N=C/c1c[n+]([O-])c2ccccc2[n+]1[O-] [Carbadox],0.881
23,CN(C(=O)CN(CCO)CC(=O)N(C)C(C)(C)Cc1ccccc1)C(C)(C)Cc1ccccc1 [Oxethazaine],-1.37
24,CC(C(O)c1ccc(O)cc1)N1CCC(Cc2ccccc2)CC1 (stereo not drawn) [Ifenprodil tartrate],-1.82
